Protein sequences, listed by entry. Tags and fused reporters are not part of them.
UniProt O54827: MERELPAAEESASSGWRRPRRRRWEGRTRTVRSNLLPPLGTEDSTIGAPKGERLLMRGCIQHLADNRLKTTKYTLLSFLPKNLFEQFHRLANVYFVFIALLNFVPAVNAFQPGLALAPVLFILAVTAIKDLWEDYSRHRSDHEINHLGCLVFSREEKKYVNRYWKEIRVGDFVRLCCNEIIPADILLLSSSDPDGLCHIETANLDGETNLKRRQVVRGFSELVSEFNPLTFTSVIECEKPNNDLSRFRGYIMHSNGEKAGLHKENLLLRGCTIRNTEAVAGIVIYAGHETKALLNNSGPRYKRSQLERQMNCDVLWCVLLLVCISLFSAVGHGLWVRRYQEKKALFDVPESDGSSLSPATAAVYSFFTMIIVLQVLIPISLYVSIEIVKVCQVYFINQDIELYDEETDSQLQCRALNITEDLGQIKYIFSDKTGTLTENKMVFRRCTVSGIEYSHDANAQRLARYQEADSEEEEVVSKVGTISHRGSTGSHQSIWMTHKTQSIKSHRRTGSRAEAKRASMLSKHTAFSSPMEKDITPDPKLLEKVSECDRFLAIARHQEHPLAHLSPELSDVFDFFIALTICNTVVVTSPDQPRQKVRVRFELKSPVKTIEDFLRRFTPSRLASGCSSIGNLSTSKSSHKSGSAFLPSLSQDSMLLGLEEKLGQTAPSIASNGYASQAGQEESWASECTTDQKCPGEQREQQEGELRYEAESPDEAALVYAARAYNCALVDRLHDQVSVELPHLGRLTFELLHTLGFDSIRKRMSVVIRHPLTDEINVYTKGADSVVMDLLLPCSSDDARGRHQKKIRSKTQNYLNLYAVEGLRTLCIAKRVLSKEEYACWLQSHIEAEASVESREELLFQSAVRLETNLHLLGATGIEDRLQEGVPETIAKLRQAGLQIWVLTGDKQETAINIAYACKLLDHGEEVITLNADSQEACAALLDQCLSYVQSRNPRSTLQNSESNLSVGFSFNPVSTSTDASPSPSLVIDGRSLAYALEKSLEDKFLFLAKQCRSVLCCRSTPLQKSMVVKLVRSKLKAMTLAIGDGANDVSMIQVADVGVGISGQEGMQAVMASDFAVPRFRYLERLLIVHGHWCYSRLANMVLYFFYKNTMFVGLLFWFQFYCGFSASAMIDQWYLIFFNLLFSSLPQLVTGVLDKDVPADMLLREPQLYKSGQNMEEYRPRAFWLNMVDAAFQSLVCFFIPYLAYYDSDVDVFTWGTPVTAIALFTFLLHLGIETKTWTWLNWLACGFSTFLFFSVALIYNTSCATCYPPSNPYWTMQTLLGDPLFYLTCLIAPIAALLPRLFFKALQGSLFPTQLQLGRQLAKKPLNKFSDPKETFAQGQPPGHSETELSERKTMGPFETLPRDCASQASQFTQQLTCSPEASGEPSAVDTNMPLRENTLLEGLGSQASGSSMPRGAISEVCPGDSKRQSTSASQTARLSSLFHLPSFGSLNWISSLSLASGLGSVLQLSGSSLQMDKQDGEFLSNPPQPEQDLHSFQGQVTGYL

In PMC6050252:

T1: CDC50A (TMEM30A), mouse, endogenous (mouse (endogenous in mouse tissues)) (UniProt Q8VEK0)
T1 sequence: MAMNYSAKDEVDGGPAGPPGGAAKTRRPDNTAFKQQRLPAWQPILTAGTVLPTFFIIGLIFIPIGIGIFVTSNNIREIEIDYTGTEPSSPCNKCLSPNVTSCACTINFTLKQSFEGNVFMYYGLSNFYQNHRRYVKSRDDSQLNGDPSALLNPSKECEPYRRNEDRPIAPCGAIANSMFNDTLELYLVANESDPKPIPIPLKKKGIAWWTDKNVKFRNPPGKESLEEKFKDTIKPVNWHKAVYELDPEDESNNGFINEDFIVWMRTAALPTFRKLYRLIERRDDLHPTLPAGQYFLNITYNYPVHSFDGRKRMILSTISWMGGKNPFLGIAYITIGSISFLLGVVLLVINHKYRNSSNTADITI


Tests used:
[1] = target: T1, CDC50A (TMEM30A), mouse, endogenous (mouse (endogenous in mouse tissues)); experiment: affinity purification with mass spectrometry; CHAPS-solubilised membranes of mouse retina, liver, brain, testes, kidney (~20 mg protein) on Cdc50-7F4-Sepharose, 4 °C, 1 h; washed in 10 mM CHAPS, 40 mM Tris pH 7.4, 150 mM NaCl, 5 mM MgCl2, 1 mM DTT; eluted with 7F4 peptide; in-gel (retina) or FASP trypsin digestion, MS/MS
[2] = target: T1, CDC50A (TMEM30A), mouse, endogenous (mouse (endogenous in mouse tissues)); experiment: as above; remark: listed apart in the source

Molecule | binding [1] | binding [2]
ATP8B3, mouse, endogenous (protein, UniProt Q6UQ17 1-1335) MDGVHLGENLEDKDTEFTWEVKANDRTYHKQFKKKGFLCWRQKKYKSNAIHTAKYNIFSFLPLNLYEQFHRMSNLYFLFIIILQGIPEISTLPWFTLFAPLVCLFVIRATRDLVDDIGRHRSDKIINNRPCQILRGKSFLWKKWKNLCVGDVVCLSKDSIVPADLLLLASTEPSSLCYVETADIDGETNLKFRQALTVTHHELTSPKKMASFQGTVTCEEPNSRMHHFVGSLEWNSRKYPLDIGNLLLRGCKIRNTDTCYGLVIYAGLDTKIMKNCGKIHLKRTKLDLMMNKLVALIFLSLVIASLLLTVGFTFMVKQFKAKHYYMSPTHGRSDAMESFFIFWGFLILLSVMVPMAMFIIAEFIYLGNSIFINWDLNMYYEPLDMPAKARSTSLNDQLGQVQYIFSDKTGTLTQNIMTFKKCCINGCIYDSDDEHGTLRKRNPYAWNPFADGKLQFYNKELESLVQGRQDRAVQEFWRLLAICHTVMVQEKDNQLLYQAASPDEEALVTAARNFGYVFLSRTQDTITLVELGEERVYQVLAMMDFNSVRKRMSVLVRNPEGSICLYTKGADTVILERLRSKGVMEATTEEVLAAFAEQTLRTLCLAYKDVEEDAYKEWEPEHQEAALLLQNRAQALHQVYNKMEQNLQLLGATAIEDKLQDGVPETIKCLKKGNIKIWVLTGDKPETAVNIGFACQLLSENMIILEDKDINQVLERYWEDNVHQKAFKMMTHHNMALVINGEFLDQLLLSLRKEPRALVQNAVVDEVAQEPVVSALDFLQKRRISQMWRNAGPSLGTSHSADSKIRESPEVQRERAFVDLASKCQAVICCRVTPKQKALVVALVKKYQQVVTLAIGDGANDVNMIKTADIGVGLAGQEGMQAVQNSDYVLAQFCYLQRLLLVHGRWSYMRVCKFLRYFFYKTVASMMAQIWFSLVNGFSAQPLYEGWFLALFNLLYSTLPVLYIGLFEQDVTAEKSLKMPELYMAGQKGELFNYSIFMQAITHGTITSMINFFVTVMVSSDMSKAGSSHDYQSLGVLVAISSLLSVTLEVMLVVKYWTLLFVGAVVLSLSSYVLMTSLTQSLWMYRISPKTFPFLFADYNVLFEPCSLLLIVLNVALNVLPMLALRTIHRTVLKQRPKGEEEAPSEEVAVEPAMRHLRRGIPARRSSYAFSHREGYANLITQGTILRRQTHVDDSDGGTVCESLNPPEEDIPLQNKDSVFNPRKISILAKKRRHFFGKGSQEEVHPNTSSQTMEKQPTIHRDSETQKLPTTTSATSGKLLPSASEDEAFYSVASQYTLASQPKHTDVHSSFWKSPLWRDSASSSPSQLEVPRKQS |  | binds
ATP8B2, mouse, endogenous (protein, UniProt P98199 1-1209) MTVPKEIPEKWARAGAPPSWSQKKPSWGTEEERRARANDREYNEKFQYASNCIKTSKYNIVTFLPVNLFEQFQEVANTYFLFLLILQLIPQISSLSWFTTIVPLVLVLTITAVKDATDDYFRHKSDNQVNNRHSQVLINGVLQQEQWMNVCVGDIIKLENNQFVAADLLLLSSSEPHGLCYIETAELDGETNMKVRQAIPVTSELGDVSQLARFDGEVICEPPNNKLDKFSGTLYWKENKFPLSNQNMLLRGCVLRNTEWCFGLVIFAGPDTKLMQNSGRTKFKRTSIDRLMNTLVLWIFGFLVCMGVILAIGNAIWEHEVGTRFQVYLPWDEAVDSAFFSGFLSFWSYIIILNTVVPISLYVSVEVIRLGHSYFINWDKKMFCMKKRTPAEARTTTLNEELGQVEYIFSDKTGTLTQNIMVFNKCSINGHSYGDVFDVLGHKAELGERPEPVDFSFNPLADKKFLFWDSSLLEAVKMGDPHTHEFFRLLSLCHTVMSEEKNEGELYYKAQSPDEGALVTAARNFGFVFRSRTPKTITVHELGTAITYQLLAILDFNNIRKRMSVIVRNPEGKIRLYCKGADTILLDRLHPPTQELLSSTTDHLNEYAGDGLRTLVLAYKDLDEEYYEEWARRRLQASLAQDSREDRLASIYEEVESDMMLLGATAIEDKLQQGVPETIALLTLANIKIWVLTGDKQETAVNIGYSCKMLTDDMTEVFVVTGHTVLEVREELRKARKKMVDSSHAVGNGFTYQGNLSSSKLTSVLEAVAGEYALVINGHSLAHALEADMELEFLETACACKAVICCRVTPLQKAQVVELVKKYKKAVTLAIGDGANDVSMIKTAHIGVGISGQEGIQAVLASDYSFSQFKFLQRLLLVHGRWSYLRMCKFLCYFFYKNFAFTMVHFWFGFFCGFSAQTVYDQYFITLYNIVYTSLPVLAMGVFDQDVPEQRSMEYPKLYEPGQLNLLFNKREFFICIAQGIYTSVLMFFIPYGVFAEATRDDGTQLADYQSFAVTVATSLVIVVSVQIGLDTGYWTAINHFFIWGSLAVYFAILFAMHSNGLFDMFPNQFRFVGNAQNTLAQPTVWLTIALTTAVCIMPVVAFRFLRLSLKPDLSDTVRYTQLVRKKQKAQHRCMRRVGRTGSRRSGYAFSHQEGFGELIMSGKNMRLSSLALSSFSTRSSSSWIESLRRKKSDSANSPSGGAEKPLKG |  | binds

The remaining lines, values ahead:

binding [1] | binding [2] | Molecule
binds |  | ATP10A, mouse, endogenous (from UniProt O54827 1-1508)
 | binds | ATP10D, mouse, endogenous (protein, UniProt Q8K2X1 1-1416) MTELLQWARHHWRRLSHGRAQGEDERPYNYASLLACGGKSSRTPRPAGKHRVVIPHLQCFKDEYERFSGTYVNNRIRTTKYTLLNFVPRNLFEQFHRAANLYFLFLVVLNWVPLVEAFQKEITMLPLVVVLTIIAIKDGLEDYRKYKIDKQINNLITKVYSRKEKKYIDCCWKNVTVGDFIRLSCNEIIPADMVLLFSTDPDGICHIETSGLDGESNLKQRQVVRGYTEQDSEVDPEKFSSRIECESPNNDLSRFRGFLEHANKERVGLSKENLLLRGCTIRNTEAVVGIVVYAGHETKAMLNNSGPRYKRSKLERRANTDVLWCVLLLIVMCLTGALGHGIWLSRYENMLFFNIPEPDGRVISPVLTGFYVFWTMIILLQVLIPISLYVSIEIVKLGQIYFIQSDVDFYNEKMDSTIQCRALNITEDLGQIQYLFSDKTGTLTENKMVFRRCSVAGFDYCHEENAKRLESYQEAVSEEEECTDTLGGSLSNMARPRAQGCRTVPSGPLGKPSAQLSGSTSAVGNGEGSGEVPHSRQAAFSSPMETDVVPDTRLLDKFSQLTPQLLTGLDGTAQSSPLETLYIMDFFIALAICNTVVVSAPNQPRQKIGLSSLGGMPIKSLEEIKNIFQKLSVRRSSSPSLASGKDSSSGTPCAFVSRISFFSRPKLSPPMEDESSQMDEIPQASNSACCTETEAQNRAVGLSVSSAEALSGPPPSASNLCYEAESPDEAALVYAARAYRCTLQSRTPEQVMVDFAALGSLTFQLLHILPFDSVRKRMSVVVRHPLSKQVVVYTKGADSVIMELLSVAASDGTNPEQQMIIRERTQRHLDEYAKRGLRTLCVAKKVMSDTEYAEWLRNHFLAETSIDNREELLVESAMRLENKLTLLGATGIEDRLQEGVPESIEALHQAGIKIWMLTGDKQETAVNIAYACKLLEPDDKLFILNTQSQDACGMLMSAILEELQKRAQVSPELASSRKNFPQPSDAQGQGRAGLVITGKTLEFALQESLQRQFLELTAWCQAVICCRATPLQKSEVVKLVRNHHHVLTLPIGDGANDVSMIQVADIGIGVSGQEGMQAVMASDFAISQFRHLSKLLLVHGHWCYTRLSNMILYFFYKNVAYVNLLFWYQFFCGFSGTSMTDYWVLIFFNLLFTSVPPIIYGVLEKDVSAETLLQLPELYRSGQRSEEYLPLTFWITLLDAFYQSLVCFFVPYFTYQGSDIDIFTFGNPLNTAALFIILLHLVIESKSLTWIHMLVTVGSILSYFFFALAFGALCVTCNPPSNPYGIMRKHMLDPVFYLVCVLTTFVALLPRFLYRVLQGSVFPSPVLRAKYFDRLPPEERAEALKRWRGTAKVNHVASKHASQSAAMSGRPTPGSSAVLAMKSATVSTVEQSTRETALDRGCSEPGASKMTGSSAS

Read-outs that look alike come from different tables or passages of the source. Results are given in words; binding and its absence hold for the method and conditions named. Binding seen in cells or lysates may run through a third protein. A yes stands for co-enrichment or nearness to the bait. Other partners may have been found.
